These are yes or no findings as the source states them, for the method shown. For part of these data: In cells and extracts the contact can be indirect. Some results given as binding are weak or reduced against the parent protein; the word gives no strength. Tags and fused reporters may be left off the sequences shown. One block for each molecule: values may come before it.
Legend:
[1] = molecular target: T1, myc-FOXL2 (human) (UniProt P58012); assay: co-IP; COS-7 cells co-transfected; lysates in modified RIPA buffer with NEM, diluted 4-fold in co-immunoprecipitation buffer; anti-myc agarose conjugate overnight at 4°C; Western blot with anti-FOXL2, anti-PIAS1, anti-UBC9 and anti-tag antibodies
T1 sequence: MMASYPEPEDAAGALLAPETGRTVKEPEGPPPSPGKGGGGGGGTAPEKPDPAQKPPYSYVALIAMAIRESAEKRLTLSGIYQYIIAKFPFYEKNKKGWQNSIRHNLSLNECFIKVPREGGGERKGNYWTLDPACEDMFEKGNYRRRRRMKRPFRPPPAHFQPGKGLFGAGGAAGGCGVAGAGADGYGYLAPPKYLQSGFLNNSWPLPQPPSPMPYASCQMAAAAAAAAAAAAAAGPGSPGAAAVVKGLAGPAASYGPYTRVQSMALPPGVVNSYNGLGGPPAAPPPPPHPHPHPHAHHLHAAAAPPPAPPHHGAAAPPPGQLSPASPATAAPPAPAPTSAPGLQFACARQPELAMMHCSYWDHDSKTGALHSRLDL

Protein sequences, listed by entry. Tags and fused reporters are not part of them.
UniProt O75925: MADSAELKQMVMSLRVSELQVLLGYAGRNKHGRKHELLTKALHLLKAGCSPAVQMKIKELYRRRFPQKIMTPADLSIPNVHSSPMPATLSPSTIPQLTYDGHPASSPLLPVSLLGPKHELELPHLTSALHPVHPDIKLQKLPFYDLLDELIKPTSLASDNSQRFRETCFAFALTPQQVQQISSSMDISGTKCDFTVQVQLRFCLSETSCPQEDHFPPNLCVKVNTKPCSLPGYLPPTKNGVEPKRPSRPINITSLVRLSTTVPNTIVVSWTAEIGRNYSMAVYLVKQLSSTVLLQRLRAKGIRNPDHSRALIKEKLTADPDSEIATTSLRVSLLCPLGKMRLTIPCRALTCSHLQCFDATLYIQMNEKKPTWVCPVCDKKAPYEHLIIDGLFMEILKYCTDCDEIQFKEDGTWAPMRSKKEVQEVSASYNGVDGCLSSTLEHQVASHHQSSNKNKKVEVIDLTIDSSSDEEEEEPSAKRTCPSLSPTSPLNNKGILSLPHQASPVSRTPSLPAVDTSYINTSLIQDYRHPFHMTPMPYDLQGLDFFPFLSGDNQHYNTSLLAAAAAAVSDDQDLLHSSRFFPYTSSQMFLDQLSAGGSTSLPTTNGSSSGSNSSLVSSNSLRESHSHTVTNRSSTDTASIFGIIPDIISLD
UniProt P63279: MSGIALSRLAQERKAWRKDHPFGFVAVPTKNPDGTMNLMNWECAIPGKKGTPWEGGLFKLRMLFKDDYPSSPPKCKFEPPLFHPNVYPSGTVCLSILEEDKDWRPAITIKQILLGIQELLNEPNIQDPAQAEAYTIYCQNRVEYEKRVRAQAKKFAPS

[2] = molecular target: T2, FOXL2 (forkhead transcription factor), full length, yeast two-hybrid fusion (human) (UniProt P58012); assay: two-hybrid; co-transformation of AH109 yeast with full-length FOXL2 in pGBKT7 and full-length PIAS1 or UBC9 in pGADT7, and with the vectors switched; strength by liquid beta-galactosidase assays (data not shown)
T2 sequence: T1 sequence

[3] = molecular target: PIAS1, full length, yeast two-hybrid fusion (human) (UniProt O75925); assay: as above
[4] = molecular target: UBC9, full length, yeast two-hybrid fusion (human) (UniProt P63279); assay: as above
[5] = molecular target: myc-PIAS1 (human) (UniProt O75925); assay: co-IP; COS-7 cells co-transfected; lysates in modified RIPA buffer with NEM, diluted 4-fold in co-immunoprecipitation buffer; anti-myc agarose conjugate overnight at 4°C; Western blot with anti-FOXL2, anti-PIAS1, anti-UBC9 and anti-tag antibodies

binding [1]: binds
Molecule: HA-UBC9 (from UniProt P63279 1-158) (enzyme)

binding [2]: binds
Molecule: PIAS1, full length, yeast two-hybrid fusion (from UniProt O75925 1-651)

binding [2]: binds
Molecule: UBC9, full length, yeast two-hybrid fusion (from UniProt P63279 1-158) (enzyme)

binding [3]: binds
binding [4]: binds
B1: FOXL2 (forkhead transcription factor), full length, yeast two-hybrid fusion (protein, UniProt P58012 1-376)
chain: T1 sequence

binding [5]: binds
B2: HA-FOXL2 (protein, UniProt P58012 1-376)
chain: T1 sequence

Source: paper PMC2830456
